In paper doi:10.1101/2020.10.23.352385:
No constants are given. Whether binding was seen depends on the method and setting. Binding seen in cells or lysates may run through a third protein. A yes stands for co-enrichment or nearness to the bait. Other partners may have been found.

The chains behind the UniProt entries cited, without tags or fusion partners.
UniProt P33176: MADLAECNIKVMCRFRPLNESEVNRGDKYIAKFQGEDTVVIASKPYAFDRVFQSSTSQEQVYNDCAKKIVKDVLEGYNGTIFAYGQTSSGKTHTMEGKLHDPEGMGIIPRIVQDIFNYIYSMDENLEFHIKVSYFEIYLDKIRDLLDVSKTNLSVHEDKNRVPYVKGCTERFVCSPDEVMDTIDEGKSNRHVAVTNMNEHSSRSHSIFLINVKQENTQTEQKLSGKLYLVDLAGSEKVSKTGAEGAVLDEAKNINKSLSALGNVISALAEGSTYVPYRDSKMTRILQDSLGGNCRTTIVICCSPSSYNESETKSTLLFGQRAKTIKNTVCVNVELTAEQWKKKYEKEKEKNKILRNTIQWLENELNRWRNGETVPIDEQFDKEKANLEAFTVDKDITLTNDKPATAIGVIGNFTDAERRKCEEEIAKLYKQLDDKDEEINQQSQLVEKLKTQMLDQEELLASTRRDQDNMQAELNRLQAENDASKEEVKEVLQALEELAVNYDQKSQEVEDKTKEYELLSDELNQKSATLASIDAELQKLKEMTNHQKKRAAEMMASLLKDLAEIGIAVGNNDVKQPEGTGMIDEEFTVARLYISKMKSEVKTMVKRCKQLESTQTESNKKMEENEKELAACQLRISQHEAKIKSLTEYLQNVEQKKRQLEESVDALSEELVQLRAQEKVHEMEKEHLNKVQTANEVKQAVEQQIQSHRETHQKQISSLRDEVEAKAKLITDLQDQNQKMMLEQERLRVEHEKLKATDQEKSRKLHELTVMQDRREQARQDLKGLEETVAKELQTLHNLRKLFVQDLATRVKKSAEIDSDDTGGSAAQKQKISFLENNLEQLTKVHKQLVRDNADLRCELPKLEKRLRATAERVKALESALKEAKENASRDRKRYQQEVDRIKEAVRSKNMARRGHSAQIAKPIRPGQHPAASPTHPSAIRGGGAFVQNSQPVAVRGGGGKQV
UniProt O00429: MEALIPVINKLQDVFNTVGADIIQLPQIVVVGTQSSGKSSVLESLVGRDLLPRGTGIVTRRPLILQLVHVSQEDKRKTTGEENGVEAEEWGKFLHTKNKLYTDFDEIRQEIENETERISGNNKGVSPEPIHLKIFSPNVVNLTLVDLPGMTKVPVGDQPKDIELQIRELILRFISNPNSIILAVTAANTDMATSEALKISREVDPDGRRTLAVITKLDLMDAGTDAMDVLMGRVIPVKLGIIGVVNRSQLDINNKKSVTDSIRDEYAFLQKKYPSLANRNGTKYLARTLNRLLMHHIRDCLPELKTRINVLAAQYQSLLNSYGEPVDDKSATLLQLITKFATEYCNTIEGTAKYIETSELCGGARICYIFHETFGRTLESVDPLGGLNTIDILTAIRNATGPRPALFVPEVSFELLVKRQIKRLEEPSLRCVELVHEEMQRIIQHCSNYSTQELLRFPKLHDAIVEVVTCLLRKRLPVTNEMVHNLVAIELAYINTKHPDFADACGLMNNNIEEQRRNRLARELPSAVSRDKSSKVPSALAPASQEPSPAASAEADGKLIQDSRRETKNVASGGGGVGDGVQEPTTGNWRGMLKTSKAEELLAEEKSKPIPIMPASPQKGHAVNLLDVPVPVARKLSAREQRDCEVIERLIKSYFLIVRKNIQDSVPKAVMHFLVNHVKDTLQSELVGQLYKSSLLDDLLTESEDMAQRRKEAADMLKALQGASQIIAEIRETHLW

Molecular target: Kinesin family member 5B (human (endogenous in A549 and SK-N-BE(2)C)) (UniProt P33176)
Experiment: affinity purification with mass spectrometry

- binding: binds
Substance: Dynamin-related protein 1 (from UniProt O00429 1-736)
